In assay [1] the target is PTHR^CFP (UniProt Q03431). As to the kind of experiment: condition: only cells treated with 10 nM PTHrP_(1-141) for 30 s in place of PTH_(1-34); FRET or BRET; FRET time course in single HEK293 cells transiently expressing PTHR^CFP and βarr-2^YFP, treated with 10 nM PTHrP(1-141) for 30 s, then washout. A general note: In BRET a luciferase serves as donor, and the signal depends on an acceptor being close.

Amino acid sequences for entries named in this document (tags omitted). Residues count along the entry.
UniProt Q03431, residues 27-593: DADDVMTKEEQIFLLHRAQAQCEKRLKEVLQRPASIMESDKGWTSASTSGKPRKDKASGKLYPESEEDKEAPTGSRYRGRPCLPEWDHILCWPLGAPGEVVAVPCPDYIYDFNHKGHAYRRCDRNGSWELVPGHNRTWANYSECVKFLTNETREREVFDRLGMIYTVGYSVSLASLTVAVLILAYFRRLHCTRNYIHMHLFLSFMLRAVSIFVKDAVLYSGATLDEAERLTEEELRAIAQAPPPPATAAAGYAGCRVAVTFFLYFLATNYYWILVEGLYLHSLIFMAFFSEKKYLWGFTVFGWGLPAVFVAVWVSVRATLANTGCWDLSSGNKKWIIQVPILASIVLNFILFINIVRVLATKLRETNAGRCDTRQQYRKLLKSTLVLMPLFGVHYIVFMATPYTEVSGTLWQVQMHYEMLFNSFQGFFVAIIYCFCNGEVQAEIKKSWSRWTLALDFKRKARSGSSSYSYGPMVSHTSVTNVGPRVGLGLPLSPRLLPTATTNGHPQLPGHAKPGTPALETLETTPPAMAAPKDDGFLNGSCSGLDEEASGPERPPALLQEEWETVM
UniProt P32121: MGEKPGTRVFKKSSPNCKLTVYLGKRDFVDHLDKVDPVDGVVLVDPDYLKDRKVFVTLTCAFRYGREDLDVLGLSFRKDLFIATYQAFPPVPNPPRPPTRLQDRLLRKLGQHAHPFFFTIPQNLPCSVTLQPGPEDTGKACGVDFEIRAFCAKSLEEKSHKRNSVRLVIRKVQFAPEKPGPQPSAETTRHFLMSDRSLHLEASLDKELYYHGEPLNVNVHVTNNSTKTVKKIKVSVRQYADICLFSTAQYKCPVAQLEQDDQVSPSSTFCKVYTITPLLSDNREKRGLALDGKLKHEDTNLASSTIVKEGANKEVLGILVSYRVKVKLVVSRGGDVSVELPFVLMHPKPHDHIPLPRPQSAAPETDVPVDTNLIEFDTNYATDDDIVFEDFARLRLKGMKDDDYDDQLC

Assay [2] addresses PTHR^CFP (UniProt Q03431). As to the kind of experiment: FRET or BRET; FRET time course in single HEK293 cells transiently expressing PTHR^CFP and βarr-2^YFP, treated with 10 nM PTH(1-34) for 30 s, then washout.

These are yes or no findings as the source states them, for the method shown. In cells and extracts the contact can be indirect. Some entries that bind do so weakly or less than the wild type.

On to “βarr-2^YFP (β-arrestin 2 tagged with YFP) (from UniProt P32121 1-409)”, for which the binding result in assay [1] is recorded as “no binding”; in assay [2], “binds”.

(Values after paper PMC9437850.)
